For at least one compound, name, drawing or mass did not settle the structure.
Tested on: human neutrophils
Test: Effect of signaling pathway inhibitors on directional neutrophil migration in IL-8 gradients (microfluidic device)
Assay type: cell-based
Text: Microfluidic Migration Assay and Timelapse Microscopy: Neutrophils (1×10^3 cells) were placed uniformly across the migration channel and allowed to migrate under a linear gradient of human Interleukin-8 (72 a.a.; PeproTech, Rocky Hill, N.J.) in IMDM with 0.5% (w/v) FCS flowing at 0.1 mm/sec. […] Brightfield images were taken every 30 seconds using a C4742-95 Hamamatsu digital camera (Hamamatsu, Japan) controlled by IPLab 3.6.1 (Scanalytics, Fairfax, Va.). Cell movement was always observed at a set point along the migration channel. Gradients were also calibrated at this set point. Migration was quantified for all cells across the gradient.
Signaling Pathway Inhibitors: Cells were treated with pertussis toxin (100 ng/mL; 30 minutes at 37° C.), wortmannin (1 μM, 10 μM; 20 minutes at 37° C., 8-Br-cAMP (1 mM; 15 minutes at room temperature), 8-Br-cGMP (1 mM; 15 minutes at room temperature) (Sigma-Aldrich), or the CXCR2 non-peptide antagonist, SB225002 (1 pM, 100 pM, 1 nM, or 1 μM for 15 minutes at 37° C.; Calbiochem, Calif.). Immediately after treatment cells were seeded in migration channel of the microfluidic device and allowed to migrate as described above.
Since receptor occupancy is known to play a role in directional decision making and gradient sensing in the context of chemotaxing eukaryotic cells, it was postulated that chemokine receptor occupancy by a chemokine might also play a critical role in the decision of a cell to move up or down a chemokine gradient. Thus, a SB25002, the specific non-peptide antagonist of the IL-8 receptor, CXCR2 was utilized to examine this postulate. Neutrophils were pretreated with SB225002 at concentrations between 1 pM and 1 μM and then exposed to 0 to 1.2 μM gradients of IL-8 in microfabricated devices as described above. Videos of cell migration were analysed using MetaMorph and MathLab software to generate normalized angular frequencies determined for cells migrating in each of the three sectors of the gradient. The absence of inhibitor generates a normalized angular frequency of 1.0 whereas inhibition of fugetactic or chemotactic angular frequencies results in a normalized frequency of <1.0 and augmentation of either directional response results in a value greater than 1. This analysis allows to precisely quantitate the effect of a given concentration of inhibitor on the directional decision of the cell to move up or down a gradient. […] Furthermore, although IL-8 binds to both CXCR2 and CXCR1 on the cell surface, of the human neutrophil bi-directional signaling was evidently critically dependent on CXCR2.
It had been previously shown that the signaling pathway for chemotaxis is distinct from that for chemorepulsion or fugetaxis. […] The study of neutrophil migration in microfabricated devices allows to examine precisely the effects of these inhibitors on quantitative parameters of cell migration including the directional bias of cells in the context of precisely defined and stable chemokine gradients. Primary human neutrophils were pretreated with known inhibitors of the chemokine signal transduction pathway including pertussis toxin, wortmannin, genistein, 8-Br-cAMP and 8-Br-cGMP and then exposed to IL-8 gradients in which chemotaxis and fugetaxis were seen. The effect of the inhibitor on directional migration towards or away from the chemokine was quantitated by determining the directional motility index of cells migrating in the context of these gradients. Movement vector angles corresponding to movement up the gradient (30 to 150 degrees—see FIG. 13) were defined as chemotactic and measured movement vector angles corresponding to movement down the gradient (210 to 330 degrees—see figure) were defined as fugetactic. The directional choice of cells to move up or down a chemokine gradient were therefore compared in the presence and the absence of an inhibitor. […]

[1] = 0 to 1.2 μM IL-8 gradient, p<0.0001

SMILES	effect on neutrophil fugetaxis (0 to 120 nM IL-8 gradient, p<0.0001)	effect on neutrophil chemotaxis (0 to 120 nM IL-8 gradient, p=0.0020)	effect on neutrophil chemotaxis [1]	effect on neutrophil fugetaxis [1]	effect on IL-8 induced chemotaxis of neutrophils (cells undergo fugetaxis to all concentrations of IL-8)	effect on IL-8 induced fugetaxis of neutrophils (cells chemotax to all concentrations of IL-8)
COC[C@H]1OC(=O)c2coc3c2[C@@]1(C)C1=C(C3=O)[C@@H]2CCC(=O)[C@@]2(C)C[C@H]1OC(C)=O [wortmannin]	augmenting	significantly inhibited	significantly augmenting	inhibiting	selectively inhibited	–
O=c1cc(N2CCOCC2)oc2c(-c3ccccc3)cccc12 [LY294002]	–	–	–	–	–	selectively inhibited
